Where a name gives a salt, the structure may show the parent alone. The list shows a part of the results. Most values lie at the level of the controls, where differences are scatter.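 Using flow cytometry, the assay measures the median γH2AX antibody signal in S-phase Reh cells (a human leukemia line). Each score is the number of standard deviations from the median difference of paired plate sets. Candidate hits scored above 2.5; compounds scoring below -2 lowered MK1775-induced damage.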
system: Reh; experiment: Z' of S-phase gammaH2AX difference (drug + MK1775 minus drug alone) (Z-score); higher = stronger synergistic S-phase DNA damage with MK1775; settings: MK1775 concentration 400 nM; first compound 10 µM; 4 h

SMILES	Z' of S-phase gammaH2AX difference (Z-score)
C=C[C@@]1(C)CC(=O)[C@]2(O)[C@@]3(C)[C@@H](O)CCC(C)(C)[C@@H]3[C@H](O)[C@H](OC(C)=O)[C@@]2(C)O1 [Forskolin] + C=CCn1c(=O)c2cnc(Nc3ccc(N4CCN(C)CC4)cc3)nc2n1-c1cccc(C(C)(C)O)n1 [MK1775]	inactive: -0.702
COc1cc2/c(=N/c3ccc(Br)cc3F)nc[nH]c2cc1OCC1CCN(C)CC1 [Vandetanib (Zactima)] + C=CCn1c(=O)c2cnc(Nc3ccc(N4CCN(C)CC4)cc3)nc2n1-c1cccc(C(C)(C)O)n1 [MK1775]	inactive: -0.336
Nc1c2c(nc3ccccc13)CCCC2 [9-Amino-1,2,3,4-tetrahydroacridine hydrochloride] + C=CCn1c(=O)c2cnc(Nc3ccc(N4CCN(C)CC4)cc3)nc2n1-c1cccc(C(C)(C)O)n1 [MK1775]	inactive: -0.374
Cc1nc2sccn2c(=O)c1CCN1CCC(=C(c2ccccc2)c2ccc(F)cc2)CC1 [Diacylglycerol kinase inhibitor I] + C=CCn1c(=O)c2cnc(Nc3ccc(N4CCN(C)CC4)cc3)nc2n1-c1cccc(C(C)(C)O)n1 [MK1775]	inactive: -0.479
NC(N)=NC(=O)c1nc(Cl)c(N2CCCCCC2)nc1N [5-(N,N-hexamethylene)amiloride] + C=CCn1c(=O)c2cnc(Nc3ccc(N4CCN(C)CC4)cc3)nc2n1-c1cccc(C(C)(C)O)n1 [MK1775]	inactive: 1.17
CC1=C(CC(=O)O)c2cc(F)ccc2/C1=C\c1ccc(S(C)(=O)=O)cc1 [Sulindac sulfone] + C=CCn1c(=O)c2cnc(Nc3ccc(N4CCN(C)CC4)cc3)nc2n1-c1cccc(C(C)(C)O)n1 [MK1775]	inactive: -1.62
O=C1CN(/N=C/c2ccc(-c3ccc([N+](=O)[O-])cc3)o2)C(=O)N1 [Dantrolene sodium] + C=CCn1c(=O)c2cnc(Nc3ccc(N4CCN(C)CC4)cc3)nc2n1-c1cccc(C(C)(C)O)n1 [MK1775]	inactive: 0.702
Nc1[nH]nc2nnc(-c3c(-c4ccccc4)nn4ccccc34)cc12 + C=CCn1c(=O)c2cnc(Nc3ccc(N4CCN(C)CC4)cc3)nc2n1-c1cccc(C(C)(C)O)n1 [MK1775]	inactive: 0.119
CC(C)CN(C)c1nc(N)c(C(=O)N=C(N)N)nc1Cl [5-(N-Methyl-N-isobutyl)amiloride] + C=CCn1c(=O)c2cnc(Nc3ccc(N4CCN(C)CC4)cc3)nc2n1-c1cccc(C(C)(C)O)n1 [MK1775]	inactive: 0.825
O=C(c1ccc2c(c1)OCCO2)N1CCCCC1 + C=CCn1c(=O)c2cnc(Nc3ccc(N4CCN(C)CC4)cc3)nc2n1-c1cccc(C(C)(C)O)n1 [MK1775]	inactive: -0.114
CN1CCc2cc(O)c(O)cc2C(c2ccccc2)C1 (stereo not drawn) + C=CCn1c(=O)c2cnc(Nc3ccc(N4CCN(C)CC4)cc3)nc2n1-c1cccc(C(C)(C)O)n1 [MK1775]	inactive: -0.647
CN1C(C)(C)CCCC1(C)C [Pempidine tartrate] + C=CCn1c(=O)c2cnc(Nc3ccc(N4CCN(C)CC4)cc3)nc2n1-c1cccc(C(C)(C)O)n1 [MK1775]	inactive: 0.815
CCCCCC[C@@H]([C@@H](C)O)n1cnc2c(N)ncnc21 [erythro-9-(2-Hydroxy-3-nonyl)adenine hydrochloride] + C=CCn1c(=O)c2cnc(Nc3ccc(N4CCN(C)CC4)cc3)nc2n1-c1cccc(C(C)(C)O)n1 [MK1775]	inactive: 1.22
CC[N+](C)(C)Cc1ccccc1Br [Bretylium tosylate] + C=CCn1c(=O)c2cnc(Nc3ccc(N4CCN(C)CC4)cc3)nc2n1-c1cccc(C(C)(C)O)n1 [MK1775]	inactive: 0.301
C[N+](C)(C)CCCCCC[N+](C)(C)C [Hexamethonium dichloride] + C=CCn1c(=O)c2cnc(Nc3ccc(N4CCN(C)CC4)cc3)nc2n1-c1cccc(C(C)(C)O)n1 [MK1775]	inactive: 0.59
C[N+](C)(C)CCCCCC[N+](C)(C)C [Hexamethonium bromide] + C=CCn1c(=O)c2cnc(Nc3ccc(N4CCN(C)CC4)cc3)nc2n1-c1cccc(C(C)(C)O)n1 [MK1775]	inactive: -0.634
O=C(O)c1cccnc1Nc1cccc(C(F)(F)F)c1 [Niflumic acid] + C=CCn1c(=O)c2cnc(Nc3ccc(N4CCN(C)CC4)cc3)nc2n1-c1cccc(C(C)(C)O)n1 [MK1775]	inactive: 0.233
Cc1oncc1C(=O)Nc1ccc(C(F)(F)F)cc1 [Leflunomide] + C=CCn1c(=O)c2cnc(Nc3ccc(N4CCN(C)CC4)cc3)nc2n1-c1cccc(C(C)(C)O)n1 [MK1775]	inactive: -0.131
Cc1cn(C2C=CC(CO)O2)c(=O)[nH]c1=O (stereo not drawn) [2',3'-didehydro-3'-deoxythymidine] + C=CCn1c(=O)c2cnc(Nc3ccc(N4CCN(C)CC4)cc3)nc2n1-c1cccc(C(C)(C)O)n1 [MK1775]	active: 4.78
CC(CCc1ccccc1)NCC(O)c1ccc(O)c(C(N)=O)c1 (stereo not drawn) [Labetalol hydrochloride] + C=CCn1c(=O)c2cnc(Nc3ccc(N4CCN(C)CC4)cc3)nc2n1-c1cccc(C(C)(C)O)n1 [MK1775]	inactive: -0.197
Cc1cc(C(C)(C)C)c(O)c(C)c1CC1=NCCN1 [Oxymetazoline hydrochloride] + C=CCn1c(=O)c2cnc(Nc3ccc(N4CCN(C)CC4)cc3)nc2n1-c1cccc(C(C)(C)O)n1 [MK1775]	inactive: -0.791
O=c1cc(N2CCOCC2)oc2c(-c3cccc4c3sc3ccccc34)cccc12 + C=CCn1c(=O)c2cnc(Nc3ccc(N4CCN(C)CC4)cc3)nc2n1-c1cccc(C(C)(C)O)n1 [MK1775]	inactive: -0.614
CC(C)(C(=O)O)c1ccc(C(O)CCCN2CCC(C(O)(c3ccccc3)c3ccccc3)CC2)cc1 (stereo not drawn) [Fexofenadine hydrochloride] + C=CCn1c(=O)c2cnc(Nc3ccc(N4CCN(C)CC4)cc3)nc2n1-c1cccc(C(C)(C)O)n1 [MK1775]	inactive: 0.658

Laid out differently: entries from further up.
SMILES | Z' of S-phase gammaH2AX difference (Z-score)
CN1CCc2cc(O)c(O)cc2C(c2ccccc2)C1 (stereo not drawn) + C=CCn1c(=O)c2cnc(Nc3ccc(N4CCN(C)CC4)cc3)nc2n1-c1cccc(C(C)(C)O)n1 [MK1775] | inactive: -0.647
CN1C(C)(C)CCCC1(C)C [Pempidine tartrate] + C=CCn1c(=O)c2cnc(Nc3ccc(N4CCN(C)CC4)cc3)nc2n1-c1cccc(C(C)(C)O)n1 [MK1775] | inactive: 0.815
CCCCCC[C@@H]([C@@H](C)O)n1cnc2c(N)ncnc21 [erythro-9-(2-Hydroxy-3-nonyl)adenine hydrochloride] + C=CCn1c(=O)c2cnc(Nc3ccc(N4CCN(C)CC4)cc3)nc2n1-c1cccc(C(C)(C)O)n1 [MK1775] | inactive: 1.22
CC[N+](C)(C)Cc1ccccc1Br [Bretylium tosylate] + C=CCn1c(=O)c2cnc(Nc3ccc(N4CCN(C)CC4)cc3)nc2n1-c1cccc(C(C)(C)O)n1 [MK1775] | inactive: 0.301
C[N+](C)(C)CCCCCC[N+](C)(C)C [Hexamethonium dichloride] + C=CCn1c(=O)c2cnc(Nc3ccc(N4CCN(C)CC4)cc3)nc2n1-c1cccc(C(C)(C)O)n1 [MK1775] | inactive: 0.59
C[N+](C)(C)CCCCCC[N+](C)(C)C [Hexamethonium bromide] + C=CCn1c(=O)c2cnc(Nc3ccc(N4CCN(C)CC4)cc3)nc2n1-c1cccc(C(C)(C)O)n1 [MK1775] | inactive: -0.634
O=C(O)c1cccnc1Nc1cccc(C(F)(F)F)c1 [Niflumic acid] + C=CCn1c(=O)c2cnc(Nc3ccc(N4CCN(C)CC4)cc3)nc2n1-c1cccc(C(C)(C)O)n1 [MK1775] | inactive: 0.233
